No constants are given. Whether binding was seen depends on the method and setting. In cells and extracts the contact can be indirect. Some results given as binding are weak or reduced against the parent protein; the word gives no strength. Tags and fused reporters may be left off the sequences shown.
What was measured:
[1] = target: Mod5 (BiFC fusions Mod5-VN and Mod5-VC) (yeast) (UniProt P07884); assay: split reporter; BiFC (VN173 + VC155), both fusions co-overexpressed in 74D-694 [pin-] yeast cells with 2% Gal, up to 48 h
[2] = target: Mod5 (BiFC fusions Mod5-VN and Mod5-VC) (yeast) (UniProt P07884); assay: split reporter; BiFC (VN173 + VC155), both fusions co-overexpressed in 74D-694 [PIN+] yeast cells with 2% Gal, up to 48 h

binding [1]: no binding (condition: in [pin-] cells)
binding [2]: binds
B1: Mod5 (BiFC fusions Mod5-VN and Mod5-VC) (protein, UniProt P07884 1-428)
chain: MLKGPLKGCLNMSKKVIVIAGTTGVGKSQLSIQLAQKFNGEVINSDSMQVYKDIPIITNKHPLQEREGIPHHVMNHVDWSEEYYSHRFETECMNAIEDIHRRGKIPIVVGGTHYYLQTLFNKRVDTKSSERKLTRKQLDILESTDPDVIYNTLVKCDPDIATKYHPNDYRRVQRMLEIYYKTGKKPSETFNEQKITLKFDTLFLWLYSKPEPLFQRLDDRVDDMLERGALQEIKQLYEYYSQNKFTPEQCENGVWQVIGFKEFLPWLTGKTDDNTVKLEDCIERMKTRTRQYAKRQVKWIKKMLIPDIKGDIYLLDATDLSQWDTNASQRAIAISNDFISNRPIKQERAPKALEELLSKGETTMKKLDDWTHYTCNVCRNADGKNVVAIGEKYWKIHLGSRRHKSNLKRNTRQADFEKWKINKKETVE

— paper PMC4287349
